Data reported in patent publication US20070167402A1, “Product of coprecipitation of sparingly soluble substance and water-soluble polymer and process for producing the same” (Meiji Seika Kaisha, Ltd., priority 2003, published 2007).
Some results were stated once for a whole list of compounds, not compound by compound.

Assay: Test 1: Solubility Test (water as test medium, 37° C., HPLC)
Type: physicochemical
Conditions: water 37° C., 200 rpm paddles; at 30 minutes after the beginning of the test and after
Experimental: Each mixture was sampled at several points of time, and each sample was filtered through a membrane filter (Sunprep LCR13-LG, manufactured by Millipore Corp., Japan).
The measurement conditions used for HPLC in Test 1 were as follows: • Detector: Ultraviolet absorptiometer (measurement wavelength: 246 nm) • Column: Stainless steel tube with an inner diameter of 4.6 mm and a length of 25 cm, for 5 μm liquid chromatography, • Column temperature: Fixed temperature at around 40° C. • Mobile phase: Mixture of methanol and water (55:45) • Flow rate: 1 mL/min

## COc1cc2[nH]c(=O)c3nn(C(OC(=O)OC(C)C)C(C)C)nc3c(=O)c2cc1OC (single isomer, unassigned) [Comparative Example 2, 2-(1-Isopropoxycarbonyloxy-2-methylpropyl)-7,8-dimethoxy-4(5H), 10-dioxo-2H-1,2,3-triazolo[4,5-c][1]benzazepine]
  concentration of Compound A in solubility test (FIG. 1): below 3 μg/mL
